Experimental data published in doi:10.1101/2022.05.07.491029.
These are yes or no findings as the source states them, for the method shown. Binding seen in cells or lysates may run through a third protein.

Target: HSV-1 gB-Sm (herpes simplex virus 1 (strain KOS)) (UniProt P06437)
Assay: split reporter

EBV gH-Lg/gL (from UniProt P03231 19-706; P03212 23-137) (complex)
binding: no binding
